According to PubChem BioAssay AID588590 (National Center for Advancing Translational Sciences (NCATS), 2011):
The campaign covered roughly 390,000 compounds. About 4,000 (1%) were called active. The inconclusive results got no clear call from the source; some entries with a clear call stand among them for comparison. The call rests on the fitted dose curve; in most records, active means well fitted inhibition curve with a large enough effect; inconclusive means small, poorly fitted or top-dose-only effect, or another doubt; inactive means no such curve, though single readings can be large or run the other way. Potencies beside an inconclusive call are fits to weak or partial responses and may not hold up.

The chains behind the UniProt entries cited, without tags or fusion partners. Where a name states a change or a piece, a line headed by the entry shows the natural chain unless it says otherwise.
UniProt Q9UNA4: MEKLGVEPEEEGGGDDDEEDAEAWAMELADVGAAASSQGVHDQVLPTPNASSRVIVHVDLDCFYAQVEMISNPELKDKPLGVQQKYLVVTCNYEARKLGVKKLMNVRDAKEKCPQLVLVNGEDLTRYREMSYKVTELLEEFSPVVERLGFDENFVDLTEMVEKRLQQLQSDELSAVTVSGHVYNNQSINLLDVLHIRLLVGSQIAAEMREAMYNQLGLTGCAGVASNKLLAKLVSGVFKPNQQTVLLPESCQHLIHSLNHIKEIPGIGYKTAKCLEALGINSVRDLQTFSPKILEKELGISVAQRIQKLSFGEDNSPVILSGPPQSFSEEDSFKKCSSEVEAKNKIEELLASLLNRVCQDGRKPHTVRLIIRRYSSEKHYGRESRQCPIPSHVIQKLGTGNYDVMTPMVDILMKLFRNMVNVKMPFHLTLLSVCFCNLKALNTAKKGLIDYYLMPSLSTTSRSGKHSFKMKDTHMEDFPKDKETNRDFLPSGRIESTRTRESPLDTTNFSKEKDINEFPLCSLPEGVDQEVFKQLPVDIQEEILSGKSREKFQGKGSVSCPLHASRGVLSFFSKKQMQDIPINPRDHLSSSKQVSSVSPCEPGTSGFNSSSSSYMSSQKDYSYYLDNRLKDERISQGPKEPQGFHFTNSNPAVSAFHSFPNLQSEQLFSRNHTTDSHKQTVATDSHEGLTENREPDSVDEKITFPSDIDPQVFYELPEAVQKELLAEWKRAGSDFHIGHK

molecular target: DNA polymerase iota (Homo sapiens) (UniProt Q9UNA4); experiment: qHTS for Inhibitors of Polymerase Iota; settings: Pol iota fluorescent replication assay, 10 min; series mostly up to 115 µM
How it was run: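 Fluorescent replication assay read twice, at 0 min and 10 min after adding 50 nM (final) substrate. Enzyme (10 nM) and compounds were first incubated 15 min at room temperature; enzyme-free buffer wells were negative controls.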
Potency means the concentration at half of the fitted maximal effect.

Potency, inactive:
O=c1cc(O)c(-c2ccccc2Cl)c(Cl)[nH]1
COc1cc(=O)n2c(-c3ccccc3)csc2n1
CC1=NN(CCC#N)C(=O)/C1=C/c1ccc(N(C)C)cc1
COc1cccc(C2C=C(c3ccc(Br)s3)Nc3ncnn32)c1OC (stereo not drawn)
CC(=O)ON(C(C)=O)c1ccc(/C=C2/C=Cc3ccccc32)cc1
NS(=O)(=O)c1ccc(NC(=O)COC(=O)CCCN2C(=O)c3cccc4cccc(c34)C2=O)cc1

Potency, inconclusive:
COC(=O)c1cc(C(=O)OC)n(Cc2ccc(C)cc2)c1C 56.2 µM [inhibitor, partial curve, poor fit]
Cc1ccc(-c2nn3c(C)nnc3s2)cc1NC(=O)c1cccs1 79.4 µM [inhibitor, partial curve]
COc1ccc(-n2nc(C(=O)NCC(=O)NCCCN3CCCCCC3)c3ccccc3c2=O)cc1Cl 79.4 µM [inhibitor, partial curve, poor fit]
CCOC(=O)CSc1nc2c(sc(=S)n2-c2ccc(CC)cc2)c(=O)[nH]1 3.16 µM [inhibitor, partial curve, poor fit]
CC(=O)Oc1ccc(CC(C(=O)O)N2C(=O)c3ccccc3C2=O)cc1 (stereo not drawn) 31.6 µM [inhibitor, single point]
Cc1cccc2cc(C(c3nnnn3CC3CCCO3)N3CCc4ccccc4C3)c(=O)[nH]c12 (stereo not drawn) 31.6 µM [inhibitor, single point]
Cn1c(C(=O)OCC(=O)NCc2cccs2)cc2sccc21 100 µM [inhibitor, partial curve, poor fit]
Cc1cccc(CNC(=O)CN2C(=O)CCn3nc(-c4cn(C)c5ccccc45)cc32)c1 79.4 µM [inhibitor, partial curve, poor fit]
CCC(=O)N(CC)C1=C(O)c2ccccc2C(=O)C1=O 35.5 µM [inhibitor, full curve]
Cc1ccc(Sc2ccc(S(=O)(=O)Nc3ccc(C(=O)O)cc3)cc2)cc1C 31.6 µM [inhibitor, partial curve, poor fit]
Cc1cc([N+](=O)[O-])cc2c1NC(c1ccccn1)C1CC=CC21 (stereo not drawn) 44.7 µM [inhibitor, partial curve]
CCC1CCCCN1CCCNC(=O)CCC(=O)N1CC(C)Oc2ccccc21 (stereo not drawn) 89.1 µM [inhibitor, partial curve, poor fit]

Two neighbouring records out of the list so far:
Potency, inconclusive:
Cn1c(C(=O)OCC(=O)NCc2cccs2)cc2sccc21 100 µM [inhibitor, partial curve, poor fit]
Cc1cccc(CNC(=O)CN2C(=O)CCn3nc(-c4cn(C)c5ccccc45)cc32)c1 79.4 µM [inhibitor, partial curve, poor fit]
